This note sets out measurements from PubChem BioAssay AID330 (DTP/NCI, 2004).

The test system of the assay is P388 leukemia ip, CD2F1 mice, survival T/C. Description: NCI In Vivo Anticancer Drug Screen. Data for tumor model P388 Leukemia (intraperitoneal) in CD2F1 (CDF1) mice. To be noted: T/C endpoint: median survival time, higher T/C = longer survival.
Where [1] appears, read: dose: 12.5 mg/kg/injection, schedule: Q01DX009 (ip), vehicle: saline with Tween-80.
Where [2] appears, read: dose: 25.0 mg/kg/injection, schedule: Q01DX009 (ip), vehicle: saline with Tween-80.
Setting [3] is: dose: 200.0 mg/kg/injection, schedule: Q01DX009 (ip), vehicle: saline with Tween-80.
The mark [4] stands for this setting: dose: 100.0 mg/kg/injection, schedule: Q01DX005 (ip), vehicle: saline with Tween-80.
Setting [5] is: dose: 200.0 mg/kg/injection, schedule: Q01DX005 (ip), vehicle: saline with Tween-80.
Where [6] appears, read: dose: 200.0 mg/kg/injection, schedule: Q01DX001 (ip), vehicle: saline with Tween-80.
[7] abbreviates: dose: 200.0 mg/kg/injection, schedule: Q01DX009 (ip), vehicle: Klucel (hydroxypropylcellulose) (HPC).
The mark [8] stands for this setting: dose: 200.0 mg/kg/injection, schedule: Q01DX005 (ip), vehicle: Klucel (hydroxypropylcellulose) (HPC).
[9] abbreviates: dose: 240.0 mg/kg/injection, schedule: Q01DX005 (ip), vehicle: saline with Tween-80.
The mark [10] stands for this setting: dose: 50.0 mg/kg/injection, schedule: Q01DX009 (ip), vehicle: Klucel (hydroxypropylcellulose) (HPC).
Setting [11] is: dose: 200.0 mg/kg/injection, schedule: Q04DX003 (ip), vehicle: saline with Tween-80.
[12] abbreviates: dose: 200.0 mg/kg/injection, schedule: Q01DX009 (ip), vehicle: distilled water + Tween-80.
Where [13] appears, read: dose: 400.0 mg/kg/injection, schedule: Q04DX003 (ip), vehicle: saline with Tween-80.

The list does not hold the whole screen: it is rich in T/C values a quarter to a half above the control, in often repeated tests (any T/C) and in doses without a T/C. Further doses and runs are listed elsewhere. T/C: endpoint of the treated group in % of that of the vehicle group. Some doses have a count of surviving animals in place of a T/C: the source holds a T/C of zero for them, seemingly a mark for toxic or unscored doses. Some doses without a T/C left all or most animals alive at the check, yet need not have been tolerated: survival well below the control is almost never listed, so the zero probably covers shortened survival too. Survivors were counted at the toxicity check, usually on the fifth day, unless a day is given; later deaths do not show. Schedule codes are those of the source, taken here to give the interval after Q, in days (D) or hours (H), and the number of doses after X. Some entries were tested several times; the results are listed from low to high. Where survival is the endpoint, the PubChem record calls one and a half times the control and up active, and a quarter to a half above the control has no call in these data; cut-offs in other NCI protocols can differ.

Turning to `CC1CN1P1(N2CC2C)=NP(N2CC2C)(N2CC2C)=NP(N2CC2C)(N2CC2C)=N1` (stereo not given), the T/C reads like this: under setting [1], 133 % of control; under setting [2], 145 % of control; (dose: 44.0 mg/kg/injection, schedule: Q04DX003 (ip), vehicle: saline) 136 % of control; (dose: 50.0 mg/kg/injection, schedule: Q04DX003 (ip), vehicle: saline) 137 % of control. Moreover, the survivor count reads like this: (dose: 150.0 mg/kg/injection, schedule: Q04DX003 (ip), vehicle: saline) 6 of 6; under setting [3], 4 of 6.

Take `COc1ccc2c(=O)c(-c3cc4c(cc3OC)OCO4)coc2c1`: the survivor count (dose: 32.0 mg/kg/injection, schedule: Q01DX005 (ip), vehicle: Klucel (hydroxypropylcellulose) (HPC)) is 6 of 6 and the survivor count (dose: 64.0 mg/kg/injection, schedule: Q01DX005 (ip), vehicle: Klucel (hydroxypropylcellulose) (HPC)) is on record as 6 of 6.

As to `CN=C(N)NN=C(c1ccc(Cl)cc1)c1ccc(Cl)cc1`, the T/C (dose: 25.0 mg/kg/injection, schedule: Q04DX002 (ip), vehicle: saline with Tween-80) is 138 % of control. Besides, the survivor count reads like this: (dose: 50.0 mg/kg/injection, schedule: Q04DX002 (ip), vehicle: saline with Tween-80) 2 of 6; (dose: 100.0 mg/kg/injection, schedule: Q04DX002 (ip), vehicle: saline with Tween-80) 0 of 6.

With `O=P1(c2ccccc2)C=C(c2ccccc2)NC(c2ccccc2)=C1`, under setting [4], the survivor count is 6 of 6.

Take `CC1=CCC(=O)O1`: the survivor count (dose: 50.0 mg/kg/injection, schedule: Q01DX009 (ip), vehicle: suspension in saline) is 6 of 6.

Regarding `Cc1cc(C(=O)Nc2ccc(NC3=NCCN3)cc2)cc(C(=O)Nc2ccc(NC3=NCCN3)cc2)c1`, the survivor count is recorded as 0 of 6 (dose: 50.0 mg/kg/injection, schedule: Q01DX005 (ip), vehicle: saline with Tween-80); 0 of 6 under setting [4]; 0 of 6 under setting [5].

In the case of `COC(OC)C(C)(C)NC1CCCCC1`, the survivor count (dose: 200.0 mg/kg/injection, schedule: Q01DX009 (ip), vehicle: saline) is 0 of 6.

On to `CNC(=O)O/N=C/c1ccccc1-c1ccccc1`, for which, under setting [3], the survivor count is given as 5 of 6.

Consider `CC(C)(C)[Si](C)(C)OCc1ccccc1N1C(=O)C(N=[N+]=[N-])C1/C=C/c1ccccc1` (stereo not given), for which the survivor count was 6 of 6 (dose: 100.0 mg/kg/injection, schedule: Q01DX001 (ip), vehicle: saline with Tween-80) and 6 of 6 under setting [6].

In the case of `C=CCn1c(=O)n(C)c(=O)c2[nH]c(Cl)nc21`, under setting [7], the survivor count was 3 of 6.

Regarding `FC(F)(F)c1ccc(NC(=S)SCc2ccc3c(c2)OCO3)cc1`, the survivor count (dose: 200.0 mg/kg/injection, schedule: Q01DX009 (ip), vehicle: suspension in saline) was 5 of 6.

In the case of `CCOc1ccc(N=Nc2c(C)nn(C(=S)S)c2OCC)cc1`, the survivor count is, setting by setting: (dose: 60.0 mg/kg/injection, schedule: Q01DX005 (ip), vehicle: Klucel (hydroxypropylcellulose) (HPC)) 0 of 6; (dose: 120.0 mg/kg/injection, schedule: Q01DX005 (ip), vehicle: Klucel (hydroxypropylcellulose) (HPC)) 0 of 6; (dose: 240.0 mg/kg/injection, schedule: Q01DX005 (ip), vehicle: Klucel (hydroxypropylcellulose) (HPC)) 0 of 6.

In the case of `C=CC(=O)OCCOCN(COCCOC(=O)C=C)c1nc(N(COCCOC(=O)C=C)COCCOC(=O)C=C)nc(N(COCCOC(=O)C=C)COCCOC(=O)C=C)n1`, the survivor count under setting [5] is 1 of 6.

For the compound `Nc1nnn(/N=C\c2ccccc2)n1`, under setting [8], the survivor count is reported as 5 of 5.

Turning to `Brc1cn2[n+](c1)[B-]n1cc(Br)c[n+]1[B-]2`, the survivor count (dose: 120.0 mg/kg/injection, schedule: Q01DX005 (ip), vehicle: saline with Tween-80) was 6 of 6 and the survivor count under setting [9] is 0 of 6.

On to `CC(=O)OCc1c(COC(C)=O)c(-c2ccc(Cl)c(Cl)c2)n2c1CCC2`, for which the T/C under setting [10] is 141 % of control and the T/C under setting [7] is 127 % of control.

Consider `Nc1ccn(C2OC(COP(=O)(O)O)C(O)C2O)c(=O)n1` (stereo not given), for which, under setting [11], the T/C is 145 % of control.

In the case of `CC1(C)CC[C@H](C2=CC(=O)c3c(O)ccc(O)c3C2=O)O1`, under “dose: 20.0 mg/kg/injection, schedule: Q01DX009 (ip), vehicle: Klucel (hydroxypropylcellulose) (HPC)”, the survivor count was 4 of 6.

For the compound `O=NN(Cc1ccc(Cl)cc1)C(C(=O)O)c1ccccc1` (stereo not given), under “dose: 240.0 mg/kg/injection, schedule: Q01DX005 (ip), vehicle: Klucel + Tween-80”, the survivor count is 6 of 6.

With `c1ccc(Cc2ncnc3nc[nH]c23)cc1`, the T/C (dose: 40.0 mg/kg/injection, schedule: Q01DX009 (ip), vehicle: saline with Tween-80) was 127 % of control.

Turning to `FC(F)(F)C1(C(F)(F)F)[O][Sb]([c]2ccc(Cl)cc2)([c]2ccc(Cl)cc2)([c]2ccc(Cl)cc2)[O]1`, under setting [7], the survivor count is 1 of 6.

In the case of `CCc1ccc2c(c1)N(CCCN(CCCl)CCCl)c1ccccc1S2`, the T/C is, setting by setting: (dose: 3.13 mg/kg/injection, schedule: Q01DX009 (ip), vehicle: saline with Tween-80) 134 and 138 % of control; (dose: 6.25 mg/kg/injection, schedule: Q01DX009 (ip), vehicle: saline with Tween-80) 138 and 141 % of control. For the same compound, the survivor count runs as follows: under setting [1], 5 of 6 and 6 of 6; under setting [2], 1 of 6.

As for `O=[N+]([O-])c1ccc(-c2c[s+]cs2)cc1`, the survivor count under setting [12] is on record as 2 of 6.

On to `CNCCCCCc1cc(-c2ccc([N+](=O)[O-])cc2)n[nH]1`, for which the survivor count is 5 of 6 under setting [11] and 0 of 6 under setting [13].

As to `CCN1C(=O)c2cccc([N+](=O)[O-])c2C1=O`, where the note is “dose: 400.0 mg/kg/injection, schedule: Q01DX009 (ip), vehicle: Klucel (hydroxypropylcellulose) (HPC)”, the survivor count was 1 of 5.

With `Clc1ncnc2ccccc12`, the survivor count under setting [5] is given as 5 of 6.

Regarding `N#Cc1ccc(NN=NCCCl)cc1`, the T/C is 131 % of control (dose: 25.0 mg/kg/injection, schedule: Q01DX009 (ip), vehicle: distilled water + Tween-80) and 142 % of control (dose: 50.0 mg/kg/injection, schedule: Q01DX009 (ip), vehicle: distilled water + Tween-80). Moreover, the survivor count runs as follows: under setting [12], 0 of 5; (dose: 200.0 mg/kg/injection, schedule: Q01DX009 (ip), vehicle: distilled water + alcohol) 3 of 6.

In the case of `O=C1OC2(CCCCC2)OC(=O)C1=Cc1ccc([N+](=O)[O-])s1`, the survivor count under setting [13] is on record as 0 of 6.

On to `CCN(CC)CC(O)c1cc(-c2ccccc2)nc2ccc(OC)cc12` (stereo not given), for which the survivor count under setting [8] is on record as 0 of 6.

As for `NCC1CC2c3ccccc3C1c1ccccc12` (stereo not given), under setting [8], the survivor count was 0 of 5.

For `CCC1(C(=O)c2ccccc2)C(C(=O)OC)=NC(=N)N=C1C(=O)OC` (stereo not given), under setting [9], the survivor count is on record as 0 of 6.

Take `CCOC(=O)Nc1cc(NC(C)/C(=N/O)c2ccccc2)c([N+](=O)[O-])c(N)n1` (stereo not given): where the note is “dose: 30.0 mg/kg/injection, schedule: Q01DX005 (ip), vehicle: Klucel (hydroxypropylcellulose) (HPC)”, the T/C was 145 % of control. For the same compound, under “dose: 480.0 mg/kg/injection, schedule: Q01DX005 (ip), vehicle: Klucel (hydroxypropylcellulose) (HPC)”, the survivor count is listed as 4 of 6.

For `OCCN1CCN(CCCN2c3ccccc3Sc3ccc(C(F)(F)F)cc32)CC1`, the T/C (dose: 30.0 mg/kg/injection, schedule: Q04DX003 (ip), vehicle: saline) was 126 % of control.

For the compound `Nc1ccc(C2C(=[N+]([O-])[O-])C=C([N+](=O)[O-])c3[nH]o[n+](=O)c32)cc1` (stereo not given), the survivor count under setting [6] is 6 of 6.

For `NNC(=O)c1ccccc1Cl`, the survivor count (dose: 25.0 mg/kg/injection, schedule: Q01DX009 (ip), vehicle: saline) is listed as 1 of 6; the survivor count under setting [10] is reported as 0 of 6; the survivor count (dose: 50.0 mg/kg/injection, schedule: Q01DX009 (ip), vehicle: saline) is given as 0 of 6.
